For 8 molecules, binding results are on record in publication PMC5927464 (2018).

These are yes or no findings as the source states them, for the method shown. Binding seen in cells or lysates may run through a third protein. A result given as binding can be weak or reduced; the word gives no strength. Tags and fused reporters may be left off the sequences shown.

B1: Flag-MuRNase L—N26, H27, L58, G47, N50, V51 (enzyme, UniProt Q05921 1-735)
chain: METPDYNTPQGGTPSAGSQRTVVEDNHLLIKAVQKGDVVRVQQLLEGGANVNACEDTWGWTPLHNAVQAGRVDIVNLLLSHGADPHRRKKNGATPFIIAGIQGDVKLLEILLSCGADVNECDENGFTAFMEAAERGNAEALRFLFAKGANVNLRRQTTKDKRRLKQGGATALMSAAEKGHLEVLRILLNDMKAEVDARDNMGRNALIRTLLNWDCENVEEITSILIQHGADVNVRGERGKTPLIAAVERKHTGLVQMLLSREGINIDARDNEGKTALLIAVDKQLKEIVQLLLEKGADKCDDLVWIARRNHDYHLVKLLLPYVANPDTDPPAGDWSPHSSRWGTALKSLHSMTRPMIGKLKIFIHDDYKIAGTSEGAVYLGIYDNREVAVKVFRENSPRGCKEVSCLRDCGDHSNLVAFYGREDDKGCLYVCVSLCEWTLEEFLRLPREEPVENGEDKFAHSILLSIFEGVQKLHLHGYSHQDLQPQNILIDSKKAVRLADFDQSIRWMGESQMVRRDLEDLGRLVLYVVMKGEIPFETLKTQNDEVLLTMSPDEETKDLIHCLFSPGENVKNCLVDLLGHPFFWTWENRYRTLRNVGNESDIKVRKCKSDLLRLLQHQTLEPPRSFDQWTSKIDKNVMDEMNHFYEKRKKNPYQDTVGDLLKFIRNIGEHINEEKKRGMKEILGDPSRYFQETFPDLVIYIYKKLKETEYRKHFPQPPPRLSVPEAVGPGGIQS
B2: Flag-MuRNase L K89A (enzyme, UniProt Q05921 1-735)
chain: METPDYNTPQGGTPSAGSQRTVVEDDSSLIKAVQKGDVVRVQQLLEKGADANACEDTWGWTPLHNAVQAGRVDIVNLLLSHGADPHRRAKNGATPFIIAGIQGDVKLLEILLSCGADVNECDENGFTAFMEAAERGNAEALRFLFAKGANVNLRRQTTKDKRRLKQGGATALMSAAEKGHLEVLRILLNDMKAEVDARDNMGRNALIRTLLNWDCENVEEITSILIQHGADVNVRGERGKTPLIAAVERKHTGLVQMLLSREGINIDARDNEGKTALLIAVDKQLKEIVQLLLEKGADKCDDLVWIARRNHDYHLVKLLLPYVANPDTDPPAGDWSPHSSRWGTALKSLHSMTRPMIGKLKIFIHDDYKIAGTSEGAVYLGIYDNREVAVKVFRENSPRGCKEVSCLRDCGDHSNLVAFYGREDDKGCLYVCVSLCEWTLEEFLRLPREEPVENGEDKFAHSILLSIFEGVQKLHLHGYSHQDLQPQNILIDSKKAVRLADFDQSIRWMGESQMVRRDLEDLGRLVLYVVMKGEIPFETLKTQNDEVLLTMSPDEETKDLIHCLFSPGENVKNCLVDLLGHPFFWTWENRYRTLRNVGNESDIKVRKCKSDLLRLLQHQTLEPPRSFDQWTSKIDKNVMDEMNHFYEKRKKNPYQDTVGDLLKFIRNIGEHINEEKKRGMKEILGDPSRYFQETFPDLVIYIYKKLKETEYRKHFPQPPPRLSVPEAVGPGGIQS
B3: Flag-MuRNase L—R80, Y81 (enzyme, UniProt Q05921 1-735)
chain: METPDYNTPQGGTPSAGSQRTVVEDDSSLIKAVQKGDVVRVQQLLEKGADANACEDTWGWTPLHNAVQAGRVDIVNLLLRYGADPHRRKKNGATPFIIAGIQGDVKLLEILLSCGADVNECDENGFTAFMEAAERGNAEALRFLFAKGANVNLRRQTTKDKRRLKQGGATALMSAAEKGHLEVLRILLNDMKAEVDARDNMGRNALIRTLLNWDCENVEEITSILIQHGADVNVRGERGKTPLIAAVERKHTGLVQMLLSREGINIDARDNEGKTALLIAVDKQLKEIVQLLLEKGADKCDDLVWIARRNHDYHLVKLLLPYVANPDTDPPAGDWSPHSSRWGTALKSLHSMTRPMIGKLKIFIHDDYKIAGTSEGAVYLGIYDNREVAVKVFRENSPRGCKEVSCLRDCGDHSNLVAFYGREDDKGCLYVCVSLCEWTLEEFLRLPREEPVENGEDKFAHSILLSIFEGVQKLHLHGYSHQDLQPQNILIDSKKAVRLADFDQSIRWMGESQMVRRDLEDLGRLVLYVVMKGEIPFETLKTQNDEVLLTMSPDEETKDLIHCLFSPGENVKNCLVDLLGHPFFWTWENRYRTLRNVGNESDIKVRKCKSDLLRLLQHQTLEPPRSFDQWTSKIDKNVMDEMNHFYEKRKKNPYQDTVGDLLKFIRNIGEHINEEKKRGMKEILGDPSRYFQETFPDLVIYIYKKLKETEYRKHFPQPPPRLSVPEAVGPGGIQS
B4: Flag-MuRNase L W60A (enzyme, UniProt Q05921 1-735)
chain: METPDYNTPQGGTPSAGSQRTVVEDDSSLIKAVQKGDVVRVQQLLEKGADANACEDTWGATPLHNAVQAGRVDIVNLLLSHGADPHRRKKNGATPFIIAGIQGDVKLLEILLSCGADVNECDENGFTAFMEAAERGNAEALRFLFAKGANVNLRRQTTKDKRRLKQGGATALMSAAEKGHLEVLRILLNDMKAEVDARDNMGRNALIRTLLNWDCENVEEITSILIQHGADVNVRGERGKTPLIAAVERKHTGLVQMLLSREGINIDARDNEGKTALLIAVDKQLKEIVQLLLEKGADKCDDLVWIARRNHDYHLVKLLLPYVANPDTDPPAGDWSPHSSRWGTALKSLHSMTRPMIGKLKIFIHDDYKIAGTSEGAVYLGIYDNREVAVKVFRENSPRGCKEVSCLRDCGDHSNLVAFYGREDDKGCLYVCVSLCEWTLEEFLRLPREEPVENGEDKFAHSILLSIFEGVQKLHLHGYSHQDLQPQNILIDSKKAVRLADFDQSIRWMGESQMVRRDLEDLGRLVLYVVMKGEIPFETLKTQNDEVLLTMSPDEETKDLIHCLFSPGENVKNCLVDLLGHPFFWTWENRYRTLRNVGNESDIKVRKCKSDLLRLLQHQTLEPPRSFDQWTSKIDKNVMDEMNHFYEKRKKNPYQDTVGDLLKFIRNIGEHINEEKKRGMKEILGDPSRYFQETFPDLVIYIYKKLKETEYRKHFPQPPPRLSVPEAVGPGGIQS
B5: Flag-MuRNase L R309A (enzyme, UniProt Q05921 1-735)
chain: METPDYNTPQGGTPSAGSQRTVVEDDSSLIKAVQKGDVVRVQQLLEKGADANACEDTWGWTPLHNAVQAGRVDIVNLLLSHGADPHRRKKNGATPFIIAGIQGDVKLLEILLSCGADVNECDENGFTAFMEAAERGNAEALRFLFAKGANVNLRRQTTKDKRRLKQGGATALMSAAEKGHLEVLRILLNDMKAEVDARDNMGRNALIRTLLNWDCENVEEITSILIQHGADVNVRGERGKTPLIAAVERKHTGLVQMLLSREGINIDARDNEGKTALLIAVDKQLKEIVQLLLEKGADKCDDLVWIARANHDYHLVKLLLPYVANPDTDPPAGDWSPHSSRWGTALKSLHSMTRPMIGKLKIFIHDDYKIAGTSEGAVYLGIYDNREVAVKVFRENSPRGCKEVSCLRDCGDHSNLVAFYGREDDKGCLYVCVSLCEWTLEEFLRLPREEPVENGEDKFAHSILLSIFEGVQKLHLHGYSHQDLQPQNILIDSKKAVRLADFDQSIRWMGESQMVRRDLEDLGRLVLYVVMKGEIPFETLKTQNDEVLLTMSPDEETKDLIHCLFSPGENVKNCLVDLLGHPFFWTWENRYRTLRNVGNESDIKVRKCKSDLLRLLQHQTLEPPRSFDQWTSKIDKNVMDEMNHFYEKRKKNPYQDTVGDLLKFIRNIGEHINEEKKRGMKEILGDPSRYFQETFPDLVIYIYKKLKETEYRKHFPQPPPRLSVPEAVGPGGIQS
B6: Flag-MuRNase L E131A (enzyme, UniProt Q05921 1-735)
chain: METPDYNTPQGGTPSAGSQRTVVEDDSSLIKAVQKGDVVRVQQLLEKGADANACEDTWGWTPLHNAVQAGRVDIVNLLLSHGADPHRRKKNGATPFIIAGIQGDVKLLEILLSCGADVNECDENGFTAFMAAAERGNAEALRFLFAKGANVNLRRQTTKDKRRLKQGGATALMSAAEKGHLEVLRILLNDMKAEVDARDNMGRNALIRTLLNWDCENVEEITSILIQHGADVNVRGERGKTPLIAAVERKHTGLVQMLLSREGINIDARDNEGKTALLIAVDKQLKEIVQLLLEKGADKCDDLVWIARRNHDYHLVKLLLPYVANPDTDPPAGDWSPHSSRWGTALKSLHSMTRPMIGKLKIFIHDDYKIAGTSEGAVYLGIYDNREVAVKVFRENSPRGCKEVSCLRDCGDHSNLVAFYGREDDKGCLYVCVSLCEWTLEEFLRLPREEPVENGEDKFAHSILLSIFEGVQKLHLHGYSHQDLQPQNILIDSKKAVRLADFDQSIRWMGESQMVRRDLEDLGRLVLYVVMKGEIPFETLKTQNDEVLLTMSPDEETKDLIHCLFSPGENVKNCLVDLLGHPFFWTWENRYRTLRNVGNESDIKVRKCKSDLLRLLQHQTLEPPRSFDQWTSKIDKNVMDEMNHFYEKRKKNPYQDTVGDLLKFIRNIGEHINEEKKRGMKEILGDPSRYFQETFPDLVIYIYKKLKETEYRKHFPQPPPRLSVPEAVGPGGIQS
B7: Flag-MuRNase L F126A (enzyme, UniProt Q05921 1-735)
chain: METPDYNTPQGGTPSAGSQRTVVEDDSSLIKAVQKGDVVRVQQLLEKGADANACEDTWGWTPLHNAVQAGRVDIVNLLLSHGADPHRRKKNGATPFIIAGIQGDVKLLEILLSCGADVNECDENGATAFMEAAERGNAEALRFLFAKGANVNLRRQTTKDKRRLKQGGATALMSAAEKGHLEVLRILLNDMKAEVDARDNMGRNALIRTLLNWDCENVEEITSILIQHGADVNVRGERGKTPLIAAVERKHTGLVQMLLSREGINIDARDNEGKTALLIAVDKQLKEIVQLLLEKGADKCDDLVWIARRNHDYHLVKLLLPYVANPDTDPPAGDWSPHSSRWGTALKSLHSMTRPMIGKLKIFIHDDYKIAGTSEGAVYLGIYDNREVAVKVFRENSPRGCKEVSCLRDCGDHSNLVAFYGREDDKGCLYVCVSLCEWTLEEFLRLPREEPVENGEDKFAHSILLSIFEGVQKLHLHGYSHQDLQPQNILIDSKKAVRLADFDQSIRWMGESQMVRRDLEDLGRLVLYVVMKGEIPFETLKTQNDEVLLTMSPDEETKDLIHCLFSPGENVKNCLVDLLGHPFFWTWENRYRTLRNVGNESDIKVRKCKSDLLRLLQHQTLEPPRSFDQWTSKIDKNVMDEMNHFYEKRKKNPYQDTVGDLLKFIRNIGEHINEEKKRGMKEILGDPSRYFQETFPDLVIYIYKKLKETEYRKHFPQPPPRLSVPEAVGPGGIQS
B8: Flag-MuRNase L R155A (enzyme, UniProt Q05921 1-735)
chain: METPDYNTPQGGTPSAGSQRTVVEDDSSLIKAVQKGDVVRVQQLLEKGADANACEDTWGWTPLHNAVQAGRVDIVNLLLSHGADPHRRKKNGATPFIIAGIQGDVKLLEILLSCGADVNECDENGFTAFMEAAERGNAEALRFLFAKGANVNLRAQTTKDKRRLKQGGATALMSAAEKGHLEVLRILLNDMKAEVDARDNMGRNALIRTLLNWDCENVEEITSILIQHGADVNVRGERGKTPLIAAVERKHTGLVQMLLSREGINIDARDNEGKTALLIAVDKQLKEIVQLLLEKGADKCDDLVWIARRNHDYHLVKLLLPYVANPDTDPPAGDWSPHSSRWGTALKSLHSMTRPMIGKLKIFIHDDYKIAGTSEGAVYLGIYDNREVAVKVFRENSPRGCKEVSCLRDCGDHSNLVAFYGREDDKGCLYVCVSLCEWTLEEFLRLPREEPVENGEDKFAHSILLSIFEGVQKLHLHGYSHQDLQPQNILIDSKKAVRLADFDQSIRWMGESQMVRRDLEDLGRLVLYVVMKGEIPFETLKTQNDEVLLTMSPDEETKDLIHCLFSPGENVKNCLVDLLGHPFFWTWENRYRTLRNVGNESDIKVRKCKSDLLRLLQHQTLEPPRSFDQWTSKIDKNVMDEMNHFYEKRKKNPYQDTVGDLLKFIRNIGEHINEEKKRGMKEILGDPSRYFQETFPDLVIYIYKKLKETEYRKHFPQPPPRLSVPEAVGPGGIQS

The test concerns the target HA-tagged L* protein of TMEV strain DA (HA-L*DA) (Theiler's murine encephalomyelitis virus, strain DA). The experiment in a line: co-IP; Flag-tagged RNase L constructs and N-terminally HA-tagged L* co-expressed in 293T cells; HA-L* immunoprecipitated from lysates with anti-HA antibody and protein A/G magnetic beads; immunoblot with anti-Flag and anti-HA. (Immunoblotting shows a protein as a band on a membrane.)
As for B1, the binding entry is given as “binds weakly”.
As for B2, the entry is “binds”.
As for B3, the entry is “binds”; as for B4, “binds”; as for B5, “binds”.
B6: the binding entry is on record as “binds”.
Take B7: the binding entry was “binds”.
Under B8 stands “binds”.
